Data taken from PMC10993126, “Capture of endogenous lipids in peptidiscs and effect on protein stability and activity” (iScience, 2024).
These are yes or no findings as the source states them, for the method shown. Some results given as binding are weak or reduced against the parent protein; the word gives no strength.

Biological target: His6-tagged MsbA (UniProt P60752)
Experiment: native gel or EMSA; 5-13% native PAGE with Coomassie staining; DDC-MsbA preparation (reconstituted in peptidisc directly from the detergent extract, high lipid content); both purified

B1: His6-tagged MsbA (natural protein, UniProt P60752 1-582, looked up)
chain: MHNDKDLSTWQTFRRLWPTIAPFKAGLIVAGVALILNAASDTFMLSLLKPLLDDGFGKTDRSVLVWMPLVVIGLMILRGITSYVSSYCISWVSGKVVMTMRRRLFGHMMGMPVSFFDKQSTGTLLSRITYDSEQVASSSSGALITVVREGASIIGLFIMMFYYSWQLSIILIVLAPIVSIAIRVVSKRFRNISKNMQNTMGQVTTSAEQMLKGHKEVLIFGGQEVETKRFDKVSNRMRLQGMKMVSASSISDPIIQLIASLALAFVLYAASFPSVMDSLTAGTITVVFSSMIALMRPLKSLTNVNAQFQRGMAACQTLFTILDSEQEKDEGKRVIERATGDVEFRNVTFTYPGRDVPALRNINLKIPAGKTVALVGRSGSGKSTIASLITRFYDIDEGEILMDGHDLREYTLASLRNQVALVSQNVHLFNDTVANNIAYARTEQYSREQIEEAARMAYAMDFINKMDNGLDTVIGENGVLLSGGQRQRIAIARALLRDSPILILDEATSALDTESERAIQAALDELQKNRTSLVIAHRLSTIEKADEIVVVEDGVIVERGTHNDLLEHRGVYAQLHKMQFGQ
notes: The same protein was prepared with different amounts of endogenous lipid (DDC, DLW, DHW in peptidisc; DDM in detergent); also called DDC-MsbA; DLW-MsbA; source: E. coli BL21(DE3), membranes solubilized with DDM, purified (Ni-NTA), reconstituted in peptidiscs or kept in DDM
**Q.** Which binding does the source give for B1 here?
**A.** binds
